These are yes or no findings as the source states them, for the method shown. In cells and extracts the contact can be indirect. These calls come from enrichment with a bait or labelling near it, and not all partners need be listed.
B1: HAUS8 (protein, UniProt Q99L00 1-373)
chain: MADSSERDAGKSAAAGACAVPKTKGRRVQGRRVVESRYLQYDKKAKKVSGAAKEEKPPEGRKASTVPRSREESQVMGTGNLQSTMLEGHGMNPPDLDLSAIDDKILSRKASWPDREMTDKAKSTSFISCDKKRILRKKRRDLQETMDMMESQTLLMTLLSVKMENNLALLEERAEKDLAAMCHEKERLQRQALELRRQLLLRQKHQELAATLDAQIEVLSPLQPVLERFKEEYMTLGRALDTTRHELPMQAVHMEGSGQELLDDLEPALRITLQLLGDLSICSPYATAQVQGASAQEPGASTQLSCLLKELKGLVTEKDLELRRLVSQVVELSSQASKEAALMNQEVWEEAEGALTSSQWYFSPDACRDDSPS
B2: CEP131 (protein, UniProt Q62036 1-1060)
chain: MKGSRTITATPEGSPEAVDLSLIGLPPPMSQRPGSASATRSIFRSMSVATGSEPRKKALEATGPGGPRAINNLRRSNSTTQVNQSWTGSPRPAEPTDFLMLFEGSTSGRRRVASLSKASSEKEATWNVLDEQPRGLALPASAQSPSTLDSALGPRRKECPLAPSFTANNRSNKGAVGNCVTTMVHNHYASSKMVSPPKSSNQTAPSLNNIVKAAAREGGEGSDLGKPRKNLSSASQSARGTTGLLRRREVTEEEAERFIHQVNQAAVTIQRWYRCQVQRRRAGAAALEHLLASKREGQRQRLGGGNLLELHRQEEAARKKAREEKARQARQAAIQVLQQKRAQKASEAEHRRPKDRPETRAPEQPRPMQEPGCVTHPKANNAGASIYPTGPADPCPPASESSPEQWQSPEDKPQDIHSQGEARQDLAVSGSSRGKARARATLDDLLDTLKLLEEEPEPLPHPKAYHKDRYAWTDEEEDANSLTADNLEKFGKLSAAPGPPDDGTLLSEAKLQSIMTFLDEMEKSGQERPAPWRESLVLEAGSGSEGSTSVMRLKLELEEKKQAMALLQRALAQQRDLTVRRVKETEKELTRQLRQQKEQYEATIQRHLSFIDQLIEDKKVLSEKCEAVVAELKHGDQRCRERVAQMQEQHELEIKKLKELMSATEKIRREKWINEKTKKIKEITVRGLEPEIQKLIAKHKQEVRRLRGLHEAELQQREEQAAQRHLRQAEELRQHLDREREVLGQQERERAQQRFEQHLEQEQRALEQQRRRLYNEVAEEKERLGQQAARQRAELEELRQQLEESSAALTRALRAEFERSREEQERRHQMELKALKDQLEAERQAWVASCAKKEEAWLLTRERELKEEIRKGRDQEIELVIHRLEADMTLAKEESERAAESRVKRVRDKYETELSELEQSERKLQERCSELKGRLGEAEGEKERLQSLVRQKEKELEDLRAVNTQMCSERASLAQVVRQEFAEQLAASQEETQRVKVELAELQARQQVELDEVHRRVKTALARKEAAVNSLRKQHEAAVKRADHLEELLEQHKGSSLSSK
B3: WRNIP1 (protein, UniProt Q91XU0 1-660)
chain: MEVSGPEDDPFLSQLHQVQCPVCQQMMPAAHINSHLDRCLLLHPAGHAEPAAGSHRAGERAKGPSPPGAKRRRLSESSALKQPATPTAAESSEGEGEEGDDGGETESRESYDAPPTPSGARLIPDFPVARSSSPARKGMGKRPAAAAAAGSASPRSWDEAEAQEEEEAGVDGDGDADVDGEDDPGHWDADAADASFGVSAGRAHPRALAAEEIRQMLEGKPLADKMRPDTLQDYIGQSRAVGQETLLRSLLEANEIPSLILWGPPGCGKTTLAHIIANNSKKHSIRFVTLSATNAKTNDVRDVIKQAQNEKSFFKRKTILFIDEIHRFNKSQQDTFLPHVECGTITLIGATTENPSFQVNAALLSRCRVIVLEKLPVEAMVTILMRAINSLGIHVLDSSRPTDPLSHSSNCSSEPSVFIEDKAVDTLAYLSDGDARTGLNGLQLAVLARLSSRKVFCKKSGQTYSPSRVLITENDVKEGLQRSHILYDRAGEEHYNCISALHKAMRGSDQNASLYWLARMLEGGEDPLYVARRLVRFASEDIGLADPSALAQAVAAYQGCHFIGMPECEVLLAQCVVYFARAPKSIEVYSAYNNVKACLRSHQGPLPPVPLHLRNAPTRLMKDLGYGKGYKYNPMYSEPVDQDYLPEELRGVDFFKQRRC
B4: RABEP2 (protein, UniProt Q91WG2 1-554)
chain: MAAAPATLALDPQPQEKQKDASESSELSRLRAELAGALAEMETMKAVAEVSESTKAEAVAAVQRQCQEEVASLQAILKDSISSYETQIAALKQERQQQQQDFEEKDRELGHLKQLLARAHPLDSLEKQMEKAHEDSEKLREIVLPMEQEITELKGKLQRAEELIQEIQRRPRQPASLHGSTELLPLSRNPSPPLEPLEEPSGDAGPAAEAFAHNCDDSASISSFSLGGAAGSASLRGPQGLSPEQEETASLVSTGTLVPEGIFLPPPGYQLVPDSQWEQLQVEGRQLQKELESVSRERDELQEGLRRSNEDCAKQMQVLLAQVQNSEQLLRTLQGTVSQAQERVQLQMAELATSHKCLSQEVKRLNEENQGLRAEQLPSSALQGSEQREDQDEALPSSIQELHLLVQNTRQQARARQQAQEHEAERLRIEIVKLREALDEETAAKASLERQLRVQREETDVLEASLCSLRIETERVQQEQRKAQLTDLLSEQRAKTLRLQAELETSEQVQRDFVRLSQALQVRLERIRQAETLQQVRSILDEAPLRDIRDIKDS
B5: CYLD (enzyme, UniProt Q80TQ2 1-952)
chain: MSSGLWSQEKVTSPYWEERIFYLLLQECSVTDKQTQKLLKVPKGSIGQYIQDRSVGHSRVPSTKGKKNQIGLKILEQPHAVLFVDEKDVVEINEKFTELLLAITNCEERLSLFRNRLRLSKGLQVDVGSPVKVQLRSGEEKFPGVVRFRGPLLAERTVSGIFFGVELLEEGRGQGFTDGVYQGKQLFQCDEDCGVFVALDKLELIEDDDNGLESDFAGPGDTMQVEPPPLEINSRVSLKVGESTESGTVIFCDVLPGKESLGYFVGVDMDNPIGNWDGRFDGVQLCSFASVESTILLHINDIIPDSVTQERRPPKLAFMSRGVGDKGSSSHNKPKVTGSTSDPGSRNRSELFYTLNGSSVDSQQSKSKNPWYIDEVAEDPAKSLTEMSSDFGHSSPPPQPPSMNSLSSENRFHSLPFSLTKMPNTNGSMAHSPLSLSVQSVMGELNSTPVQESPPLPISSGNAHGLEVGSLAEVKENPPFYGVIRWIGQPPGLSDVLAGLELEDECAGCTDGTFRGTRYFTCALKKALFVKLKSCRPDSRFASLQPVSNQIERCNSLAFGGYLSEVVEENTPPKMEKEGLEIMIGKKKGIQGHYNSCYLDSTLFCLFAFSSALDTVLLRPKEKNDIEYYSETQELLRTEIVNPLRIYGYVCATKIMKLRKILEKVEAASGFTSEEKDPEEFLNILFHDILRVEPLLKIRSAGQKVQDCNFYQIFMEKNEKVGVPTIQQLLEWSFINSNLKFAEAPSCLIIQMPRFGKDFKLFKKIFPSLELNITDLLEDTPRQCRICGGLAMYECRECYDDPDISAGKIKQFCKTCSTQVHLHPRRLNHSYHPVSLPKDLPDWDWRHGCIPCQKMELFAVLCIETSHYVAFVKYGKDDSAWLFFDSMADRDGGQNGFNIPQVTPCPEVGEYLKMSLEDLHSLDSRRIQGCARRLLCDAYMCMYQSPTMSLYK
B6: TSG101 (protein, UniProt Q61187 1-391)
chain: MAVSESQLKKMMSKYKYRDLTVRQTVNVIAMYKDLKPVLDSYVFNDGSSRELVNLTGTIPVRYRGNIYNIPICLWLLDTYPYNPPICFVKPTSSMTIKTGKHVDANGKIYLPYLHDWKHPRSELLELIQIMIVIFGEEPPVFSRPTVSASYPPYTATGPPNTSYMPGMPSGISAYPSGYPPNPSGYPGCPYPPAGPYPATTSSQYPSQPPVTTVGPSRDGTISEDTIRASLISAVSDKLRWRMKEEMDGAQAELNALKRTEEDLKKGHQKLEEMVTRLDQEVAEVDKNIELLKKKDEELSSALEKMENQSENNDIDEVIIPTAPLYKQILNLYAEENAIEDTIFYLGEALRRGVIDLDVFLKHVRLLSRKQFQLRALMQKARKTAGLSDLY

By UniProt entry, the sequences of proteins in these tests, tags left out. Where a name states a change or a piece, a line headed by the entry shows the natural chain unless it says otherwise.
UniProt Q7Z494: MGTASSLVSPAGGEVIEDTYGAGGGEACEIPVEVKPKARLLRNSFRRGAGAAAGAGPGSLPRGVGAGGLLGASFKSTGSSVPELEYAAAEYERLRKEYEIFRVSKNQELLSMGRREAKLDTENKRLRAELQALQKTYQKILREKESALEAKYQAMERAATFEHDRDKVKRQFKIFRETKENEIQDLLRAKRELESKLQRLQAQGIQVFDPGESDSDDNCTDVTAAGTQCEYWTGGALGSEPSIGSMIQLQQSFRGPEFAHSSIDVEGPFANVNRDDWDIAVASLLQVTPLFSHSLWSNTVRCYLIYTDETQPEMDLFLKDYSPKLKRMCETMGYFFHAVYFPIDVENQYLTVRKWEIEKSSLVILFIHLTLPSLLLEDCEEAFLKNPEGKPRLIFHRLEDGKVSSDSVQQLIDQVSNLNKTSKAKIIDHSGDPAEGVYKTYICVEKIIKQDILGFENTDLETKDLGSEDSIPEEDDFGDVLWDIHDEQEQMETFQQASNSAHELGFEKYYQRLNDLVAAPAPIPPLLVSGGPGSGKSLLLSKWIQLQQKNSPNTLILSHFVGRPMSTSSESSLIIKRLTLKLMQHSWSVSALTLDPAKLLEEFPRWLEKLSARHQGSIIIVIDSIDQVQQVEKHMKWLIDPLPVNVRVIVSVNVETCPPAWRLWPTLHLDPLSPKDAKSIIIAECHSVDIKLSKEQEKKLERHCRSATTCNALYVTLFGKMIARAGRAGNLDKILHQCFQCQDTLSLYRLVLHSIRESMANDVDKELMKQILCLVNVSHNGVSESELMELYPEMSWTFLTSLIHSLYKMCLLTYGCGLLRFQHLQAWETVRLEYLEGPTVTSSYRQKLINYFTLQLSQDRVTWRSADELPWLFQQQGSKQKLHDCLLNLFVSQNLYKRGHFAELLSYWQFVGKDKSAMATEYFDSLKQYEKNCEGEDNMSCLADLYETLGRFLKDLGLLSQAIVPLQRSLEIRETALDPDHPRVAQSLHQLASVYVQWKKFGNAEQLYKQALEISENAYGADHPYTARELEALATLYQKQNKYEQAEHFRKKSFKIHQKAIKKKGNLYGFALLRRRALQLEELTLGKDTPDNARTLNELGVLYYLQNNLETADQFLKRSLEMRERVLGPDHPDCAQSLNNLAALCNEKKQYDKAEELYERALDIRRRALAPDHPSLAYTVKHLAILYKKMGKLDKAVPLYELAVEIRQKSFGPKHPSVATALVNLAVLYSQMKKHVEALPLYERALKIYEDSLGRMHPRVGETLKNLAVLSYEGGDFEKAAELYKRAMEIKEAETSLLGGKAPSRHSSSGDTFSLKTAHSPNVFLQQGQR

Target: NPHP3-BioID2-RAD23B (aa185-409) (human) (UniProt Q7Z494)
Test: proximity labelling; NPHP3-BioID2-RAD23B (aa185-409) stably expressed in IMCD3 Flp-In cells, starvation medium 48 h, 10 uM biotin for the last 24 h; RIPA lysis, StrepTactin Superflow beads 3 h at 4°C, on-bead trypsin digestion, label-free MS; enrichment against the NPHP3-BioID2 control line; 6 replicates per cell line

binding, binds:
B1, B2, B3, B4, B5, B6

Source: publication PMC9908615
